The record followed here is the supplement of paper PMC12578635.

The list shows a part of the results. No stated cut-off is given here; in the data, active = 150% or more and inactive = the rest. Most values come without repeats; read them as rough.

The subject of the assay is Staphylococcus aureus JE2-lux inside RAW 264.7 macrophages. In words: intracellular bacterial bioluminescence relative to DMSO vehicle; higher = higher intracellular bacterial metabolic activity. To be noted: 10 µM; treatment time 4 h; gentamicin 50 µg/ml.
Regarding `COc1ccc(Cl)c2sc(N3CCN(C(=O)C4COc5ccccc5O4)CC3)nc12` (stereo not drawn), the intracellular bacterial bioluminescence was inactive: 100%.

Turning to `Cn1nc(C(=O)N2CCOCC2)c2c1CCN(S(=O)(=O)c1cccc3nsnc13)C2`, the intracellular bacterial bioluminescence was inactive: 84%.

In the case of `O=C(Nc1ccc2c(c1)C(=O)NC2=O)c1ccc(-c2nc3ccccc3s2)s1`, the intracellular bacterial bioluminescence was inactive: 91.1%.

Take `CCOC(=O)CCc1c(C)[nH]c2nc(CO)nn2c1=O`: the intracellular bacterial bioluminescence is inactive: 67.6%.

In the case of `CCOc1ccc2nc(NC(=O)c3cc4c(=O)n5cccc(C)c5nc4s3)sc2c1`, the intracellular bacterial bioluminescence was inactive: 133%.

Turning to `COC(=O)c1sc2ccccc2c1NC(=O)COc1ccc(Cl)cc1Cl`, the intracellular bacterial bioluminescence is inactive: 84.3%.

In the case of `COc1ccccc1NC(=O)Cn1c(C)nc2ccc(NC(=O)c3ccccc3)cc2c1=O`, the intracellular bacterial bioluminescence was inactive: 82%.

Regarding `CCCc1cc(=O)[nH]c2nnc(SCc3cccc([N+](=O)[O-])c3)n12`, the intracellular bacterial bioluminescence is inactive: 128%.

As for `O=C(Nc1nc2c(s1)CCc1ccccc1-2)c1ccc(N2C(=O)CCC2=O)cc1`, the intracellular bacterial bioluminescence was inactive: 94.6%.

Consider `CCC(C)Nc1nc2c(C)cccn2c(=O)c1/C=N/c1ccc([N+](=O)[O-])cc1Cl` (stereo not drawn), for which the intracellular bacterial bioluminescence is inactive: 89.9%.

For the molecule `Cc1cc(C)cc(-n2c(SCC(=O)Nc3ccc(C(N)=O)cc3)nc3c(c2=O)SCC3)c1`, the intracellular bacterial bioluminescence was inactive: 121%.

In the case of `O=C1N=C(N2CCN(c3ccccc3)CC2)S/C1=C/c1ccc(O)cc1`, the intracellular bacterial bioluminescence is inactive: 86.2%.

With `Oc1ccc(-c2n[nH]cc2-c2nc3ccccc3s2)c(O)c1`, the intracellular bacterial bioluminescence was inactive: 97.7%.

For `CCOC(=O)c1c(-c2ccc(OC)cc2)csc1NC(=O)CSc1nnc2ccccn12`, the intracellular bacterial bioluminescence was inactive: 26.4%.

With `CCOC(=O)c1sc(Nc2nc3cc4c(cc3s2)OCO4)cc1C`, the intracellular bacterial bioluminescence was inactive: 88%.

Take `COc1ccc(Cl)c2sc(N(Cc3cccnc3)C(=O)c3cccc(S(C)(=O)=O)c3)nc12`: the intracellular bacterial bioluminescence was inactive: 67.2%.

As for `Cn1c(=O)c2c(SCC(=O)Nc3cccc(F)c3)nc(-c3ccc([N+](=O)[O-])cc3)nc2n(C)c1=O`, the intracellular bacterial bioluminescence is inactive: 95.4%.

As for `CC(C)NC(=O)c1ccc(-c2ccc(F)cc2)nc1`, the intracellular bacterial bioluminescence is inactive: 103%.

As for `Cc1ccc(OCC(O)Cn2c(N(C)Cc3ccccc3)nc3c2c(=O)[nH]c(=O)n3C)cc1C` (stereo not drawn), the intracellular bacterial bioluminescence is inactive: 62.4%.

Take `CC1(C)COc2ccc(NC(=O)CCc3ccccc3)cc2NC1=O`: the intracellular bacterial bioluminescence was inactive: 109%.

With `COc1cccc(NC(=O)c2cnc(-c3ccc(C)cc3)nc2C)c1`, the intracellular bacterial bioluminescence is inactive: 77.9%.

As for `Nc1c(-c2nc(-c3ccc(Br)cc3)cs2)c2ccccn2c1C(=O)c1cccs1`, the intracellular bacterial bioluminescence is inactive: 84.2%.

As for `N#CC1=C(SCC(=O)N(c2ccccc2)c2ccccc2)NC(=O)CC1c1ccco1` (stereo not drawn), the intracellular bacterial bioluminescence was inactive: 91.7%.

With `C#CCSc1nc2ccccc2n1C(=O)c1ccc(S(=O)(=O)N2CCOCC2)cc1`, the intracellular bacterial bioluminescence is inactive: 97.9%.

`O=C1c2ccccc2C(=O)c2cc(S(=O)(=O)Nc3ccncc3)ccc21`: the intracellular bacterial bioluminescence was inactive: 85.9%.

Turning to `O=C(CCS(=O)(=O)c1ccc(F)cc1)Nc1ncc(S(=O)(=O)c2ccc([N+](=O)[O-])cc2)s1`, the intracellular bacterial bioluminescence is inactive: 62.7%.

As to `Cc1ccc(C2CC(=O)c3cnc(Nc4ccc(C)cc4C)nc3C2)cc1` (stereo not drawn), the intracellular bacterial bioluminescence is inactive: 6.78%.

Consider `COc1cc(NC(=O)c2cccc3nccnc23)ccc1NC(=O)C1CCCCC1`, for which the intracellular bacterial bioluminescence is inactive: 92.2%.

Take `Clc1ccc(-n2cc(-c3ccccc3)c3c(NCCCn4ccnc4)ncnc32)cc1`: the intracellular bacterial bioluminescence is inactive: 68.5%.

As for `COc1ccccc1OCC(=O)N1c2ccccc2CC1C(N)=O` (stereo not drawn), the intracellular bacterial bioluminescence was inactive: 104%.

`CCOC(=O)Cc1csc(NC(=O)CSc2nc(=O)[nH]c3c2CCCC3)n1`: the intracellular bacterial bioluminescence is inactive: 88.3%.

Turning to `COc1cccc2sc(Nc3ccccc3)nc12`, the intracellular bacterial bioluminescence is inactive: 89%.

As to `O=C(c1noc2ccc(S(=O)(=O)N3CCC(Cc4ccccc4)CC3)cc12)N1CCCC1`, the intracellular bacterial bioluminescence was inactive: 46.3%.

Turning to `O=C(CSc1nc(O)c2c(n1)CCC2)Nc1cccc2ccccc12`, the intracellular bacterial bioluminescence is inactive: 104%.

For `CCNc1nc(C(N)=O)c(NC(=O)c2cc(-c3ccc(OC)cc3)nc3ccccc23)s1`, the intracellular bacterial bioluminescence was inactive: 90.2%.

In the case of `N#C/C(=C\Nc1ccc2c(c1)OCO2)c1nc(-c2ccc([N+](=O)[O-])cc2)cs1`, the intracellular bacterial bioluminescence is inactive: 79.1%.

Turning to `Cn1c(=O)c(C(=O)NCCc2c[nH]c3ccccc23)cc2cccnc21`, the intracellular bacterial bioluminescence is inactive: 125%.

For `COc1cccc(C(=O)CC2(O)C(=O)Nc3c(C)cccc32)c1` (stereo not drawn), the intracellular bacterial bioluminescence is inactive: 79.6%.

For the molecule `CCn1c(=O)c(N2CCN(C(=O)c3ccc(F)c(Cl)c3)CC2)c(C)n(-c2ccccc2)c1=O`, the intracellular bacterial bioluminescence is inactive: 57.2%.

On to `COc1cc(/C=N/Nc2ncnc3[nH]cnc23)cc(OC)c1OC`, for which the intracellular bacterial bioluminescence was inactive: 103%.

For `NS(=O)(=O)c1ccc(CCNC(=O)C(=O)Nc2cc3c4c(c2)CC(=O)N4CCC3)cc1`, the intracellular bacterial bioluminescence is inactive: 124%.

On to `Cc1nc2c(C)cccc2cc1C(=O)Nc1cccc(C(=O)N2CCCCC2)c1`, for which the intracellular bacterial bioluminescence was inactive: 50.5%.

On to `C#CCn1/c(=N/C(=O)CCCC)sc2cc(S(N)(=O)=O)ccc21`, for which the intracellular bacterial bioluminescence is inactive: 86.8%.

Take `O=C(NCc1cccnc1)c1cnc2n(c1=O)CCS2`: the intracellular bacterial bioluminescence is inactive: 108%.

With `COC(=O)Cn1/c(=N/C(=O)c2ccccc2C)sc2cc(S(C)(=O)=O)ccc21`, the intracellular bacterial bioluminescence is inactive: 148%.

With `O=C(CSc1ccc([N+](=O)[O-])cc1[N+](=O)[O-])NC1CCS(=O)(=O)C1` (stereo not drawn), the intracellular bacterial bioluminescence is inactive: 85.8%.

For `CC(C)c1cc(C(=O)N2CCc3ccccc32)nn1C1CCS(=O)(=O)C1` (stereo not drawn), the intracellular bacterial bioluminescence is inactive: 114%.

As for `N#C/C(=C\c1c[nH]c2ccc(Br)cc12)C(=O)N1CCOCC1`, the intracellular bacterial bioluminescence is inactive: 61%.

`Cn1c(=O)[nH]c(=O)c2[nH]c(CN(Cc3ccccc3)Cc3ccccc3)nc21`: the intracellular bacterial bioluminescence is inactive: 88.3%.

With `COc1ccc(C2C3=C(CC(C)(C)CC3=O)Nc3nc(SC(C)C)[nH]c(=O)c32)cc1` (stereo not drawn), the intracellular bacterial bioluminescence was inactive: 116%.

Turning to `O=C(/C=C/c1ccccc1)NN1C(=O)c2ccccc2C1=O`, the intracellular bacterial bioluminescence was inactive: 65.6%.

On to `O=C(CSc1nnc(-c2ccccc2)c(-c2ccccc2)n1)Nc1nccs1`, for which the intracellular bacterial bioluminescence was inactive: 133%.

In the case of `CCOC(=O)c1[nH]c2ccccc2c1NC(=S)Nc1cccc(Cl)c1C`, the intracellular bacterial bioluminescence is inactive: 39.5%.

With `O=C(CC1Nc2ccccc2NC1=O)Nc1cccc(C(=O)O)c1` (stereo not drawn), the intracellular bacterial bioluminescence was inactive: 74.6%.

`O=C(CSc1nc2ccccc2o1)OCC(=O)c1ccc(F)cc1`: the intracellular bacterial bioluminescence was inactive: 93.9%.

`COc1ccc2nc(NC(=O)Cn3c(=O)c4cnc(-c5ccccc5)nc4n(C)c3=O)sc2c1`: the intracellular bacterial bioluminescence is inactive: 107%.

For `O=C(CC(C(=O)O)N1CCNCC1)Nc1ccc(Br)cc1` (stereo not drawn), the intracellular bacterial bioluminescence was inactive: 106%.

For the molecule `C=CCn1c(SCC(=O)Nc2ccc3c(c2)OCCO3)nc2scc(-c3ccco3)c2c1=O`, the intracellular bacterial bioluminescence was inactive: 30.2%.

Regarding `CCc1ccc(NC(=O)CS(=O)CC(=O)Nc2ccc(-n3cnnn3)c(C)c2)cc1` (stereo not drawn), the intracellular bacterial bioluminescence is inactive: 63.6%.

Take `COc1ccc(C(=O)CSc2nc(=O)n(Cc3cccnc3)c3c2CCC3)cc1`: the intracellular bacterial bioluminescence was inactive: 73.5%.

Consider `Cc1c(C)n2c(SCc3ccc(C(F)(F)F)cc3)nnc2[nH]c1=O`, for which the intracellular bacterial bioluminescence was inactive: 107%.

As for `O=C(Nc1cccc(I)c1)/C(O)=C1\C(=O)Nc2ccccc21`, the intracellular bacterial bioluminescence is inactive: 112%.

As to `O=C1C2C3CC(C2C(=O)N1c1ccccc1)C1C(c2ccc(O)cc2)c2sc(=O)[nH]c2SC31` (stereo not drawn), the intracellular bacterial bioluminescence is inactive: 74.5%.

For the molecule `CCOC(=O)C1CCN(S(=O)(=O)CCNC(=O)c2ccc3c(c2)OCO3)CC1`, the intracellular bacterial bioluminescence was inactive: 108%.

As for `COc1ccc(NC(=O)C2CCN(C(=O)Nc3cccc(Cl)c3)CC2)cc1OC`, the intracellular bacterial bioluminescence is inactive: 84.9%.

On to `COc1ccc2[nH]cc(CCNC(=O)c3ccc4nnc(C)n4c3)c2c1`, for which the intracellular bacterial bioluminescence was inactive: 92.3%.

Turning to `Cc1nc(N2CCCC2)ncc1C(=O)NC(c1ccccc1)c1cccnc1` (stereo not drawn), the intracellular bacterial bioluminescence is inactive: 114%.

For the molecule `CCCn1c(=O)c2cc(F)ccc2n2c(=S)[nH]nc12`, the intracellular bacterial bioluminescence is inactive: 111%.

As for `CNc1n[nH]c(N)c1-c1nc(-c2ccc(OC)cc2)no1`, the intracellular bacterial bioluminescence is inactive: 106%.

Take `Cc1ccc2nc(Nc3ccc(Cl)cc3)c(C=O)c(=O)n2c1`: the intracellular bacterial bioluminescence was inactive: 133%.

Regarding `COc1ccc(CC(=O)Nc2c3c(nn2-c2ccc(C)cc2)CSC3)cc1OC`, the intracellular bacterial bioluminescence is inactive: 110%.

Regarding `CCn1cc(NC(=O)NCCc2ccc(S(N)(=O)=O)cc2)c2ccccc21`, the intracellular bacterial bioluminescence is inactive: 130%.

For the molecule `CCOC(=O)c1ccc(N2C(=O)C3Sc4[nH]c(=O)sc4C(/C=C/c4ccccc4)C3C2=O)cc1` (stereo not drawn), the intracellular bacterial bioluminescence was inactive: 65.7%.

Consider `Cc1ccc(S(=O)(=O)c2nccn3nc(-c4ccc(Cl)cc4)cc23)cc1`, for which the intracellular bacterial bioluminescence is inactive: 102%.

Consider `Cc1ccccc1NC(=O)CSc1cc[nH]c(=O)n1`, for which the intracellular bacterial bioluminescence is inactive: 105%.

As to `COc1cccc(NC(=O)CCc2c(C)nn(-c3nc(C)c(C)s3)c2O)c1`, the intracellular bacterial bioluminescence was inactive: 119%.

On to `CC1(C)CC(=O)c2sc(NC(=O)c3cc(-c4cccs4)nc4ccccc34)nc2C1`, for which the intracellular bacterial bioluminescence was inactive: 83.8%.

As to `Cc1cc(C)c(S(=O)(=O)Nc2cnc(N3CCNCC3)c(C(=O)NC3CC3)c2)cc1C`, the intracellular bacterial bioluminescence is inactive: 92.2%.

On to `COc1cc(OC)c(NC(=O)C2CCCN(c3nc(C)nc4oc(C)c(C)c34)C2)cc1Cl` (stereo not drawn), for which the intracellular bacterial bioluminescence is inactive: 117%.

For the molecule `N#Cc1c(N)nc(SCC(=O)Nc2ccccc2)c(C#N)c1-c1ccccc1`, the intracellular bacterial bioluminescence was inactive: 109%.

`COC(=O)c1ccccc1NS(=O)(=O)c1cccc2cccnc12`: the intracellular bacterial bioluminescence was inactive: 117%.

Regarding `CCc1cccc(C)c1NC(=O)CSc1nnc2ccc(C(=O)Nc3cccc(C)c3)cn12`, the intracellular bacterial bioluminescence is inactive: 70.4%.

For the molecule `COc1ccc(NC(=O)Nc2nc(SCC(=O)C(C)(C)C)ns2)cc1`, the intracellular bacterial bioluminescence is inactive: 124%.

Take `CCc1cc(-c2csc(S(=O)(=O)N3CC=C(c4ccccc4)CC3)c2)on1`: the intracellular bacterial bioluminescence was inactive: 81.3%.

For `Cc1ccc(-c2nc3sc(N4CCN(C(=O)c5cnccn5)CC4)nn3c2NC2CCCC2)cc1`, the intracellular bacterial bioluminescence is inactive: 93.9%.

As to `COc1ccc(-c2noc(-c3cccnc3N3CCN(c4ccccc4F)CC3)n2)cc1`, the intracellular bacterial bioluminescence is inactive: 66.2%.

On to `O=C(CC(NCc1ccccn1)C(=O)O)Nc1cccc([N+](=O)[O-])c1` (stereo not drawn), for which the intracellular bacterial bioluminescence is inactive: 99.6%.

For the molecule `COc1cc2nc(NC(=O)c3ccco3)sc2cc1OC`, the intracellular bacterial bioluminescence is inactive: 112%.
